Test results from patent US12173188B2, “Ultraviolet absorbing agent, ultraviolet absorbing composition, ultraviolet absorbing film, laminate, and novel compound” (FUJIFILM CORPORATION, priority 2019, dated 2024).

Tests used:
[1] = Yellowishness, visual observation of laminate on white paper
[2] = Haze (initial haze) of ultraviolet absorbing film by haze meter
[3] = 5.0 parts agent/45.0 parts PVA film
[4] = film from 5.0 parts agent, 45.0 parts PVA, dip coating, 1.5 mm, compensated for glass plate haze (0.20%) (Examples 1-5, Comparative Examples 1-5)
[5] = 2.0 parts agent/98.0 parts PVA film
[6] = film from 2.0 parts agent, 98.0 parts PVA, spin coating (Examples 6-9)

Row | Structure (SMILES) | Yellowishness [1, 3] | Initial haze [2, 4] | Yellowishness [1, 5] | Initial haze [2, 6] | Initial haze ([2]; in words, summary of Table 1)
1 | CON=CC(C#N)=C1Sc2c(OCCCCS(=O)(=O)[O-])ccc(OCCCCS(=O)(=O)[O-])c2S1.[Na+].[Na+] [Compound M-5] | No | 0.23 | – | – | –
2 | O=C(c1ccc(O)cc1O)c1ccc(O)cc1O [Compound H-1, reference compound] | No | 0.4 | – | – | –
3 | CCCCC(CC)COc1ccc(OCC(CC)CCCC)c2c1SC(=C1C(=O)N(CCCC)N(CCCC)C1=O)S2 (centres unmarked) [Compound H-5, reference compound] | Yes | 14 | – | – | –
4 | O=S(=O)([O-])CCNc1nc(NCCS(=O)(=O)[O-])nc(Nc2ccc(C=Cc3ccc(Nc4nc(NCCS(=O)(=O)[O-])nc(NCCS(=O)(=O)[O-])n4)cc3S(=O)(=O)[O-])c(S(=O)(=O)[O-])c2)n1.[Na+].[Na+].[Na+].[Na+].[Na+].[Na+] [Compound H-3, reference compound] | No | 0.8 | – | – | –
5 | N#CC(C#N)=C1Sc2c(OCCCCS(=O)(=O)[O-])ccc(OCCCCS(=O)(=O)[O-])c2S1.[Na+].[Na+] [Compound M-3] | No | 0.22 | No | 0.1 | –
6 | CCCCN1C(=O)C(=C2Sc3c(OCCCCS(=O)(=O)[O-])c4c(c(OCCCCS(=O)(=O)[O-])c3S2)SC(=C2C(=O)N(CCCC)N(CCCC)C2=O)S4)C(=O)N1CCCC.[Na+].[Na+] [Compound H-4, reference compound] | Yes | 4.5 | – | – | good
7 | CCCCN1C(=O)C(=C2Sc3c(OCCCCS(=O)(=O)[O-])ccc(OCCCCS(=O)(=O)[O-])c3S2)C(=O)N1CCCC.[Na+].[Na+] [Compound M-11] | No | 0.2 | No | 0.1 | –
8 | N#CC(C#N)=C1Sc2c(OC(=O)CCC(=O)[O-])ccc(OC(=O)CCC(=O)[O-])c2S1.[Na+].[Na+] [Compound M-8] | No | 0.21 | No | 0.1 | –
